Hit rate of the full screen: of about 320,000 compounds, about 620 (0.19%) were called active. Inconclusive means that the source gave no clear call. Such entries were picked first, then a sample of the others. Rule as the data show it: active = activation above about 80%; inconclusive = between about 30% and that limit; inactive = weaker than that.
target: Transient receptor potential cation channel subfamily V member 1 (Homo sapiens) (UniProt Q8NER1); experiment: HTS Assay for Compounds that Act as Agonists of the Vanilloid Receptor 1; conditions: TRPV1-expressing cells, Fluo-8 calcium influx, agonist mode; at 8.33 µM, stronger effect = higher value; also: 0% is about no effect
Method in brief: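 TRPV1-expressing cells were cultured overnight at 35.5C and loaded with Fluo-8 calcium dye for 40 to 90 min at room temperature. After a 10 s baseline, compound was added and calcium influx was read kinetically for 3 min (ex 480/em 520 nm).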

By UniProt entry, the sequences of proteins in these tests, tags left out.
UniProt Q8NER1, whole entry, looked up: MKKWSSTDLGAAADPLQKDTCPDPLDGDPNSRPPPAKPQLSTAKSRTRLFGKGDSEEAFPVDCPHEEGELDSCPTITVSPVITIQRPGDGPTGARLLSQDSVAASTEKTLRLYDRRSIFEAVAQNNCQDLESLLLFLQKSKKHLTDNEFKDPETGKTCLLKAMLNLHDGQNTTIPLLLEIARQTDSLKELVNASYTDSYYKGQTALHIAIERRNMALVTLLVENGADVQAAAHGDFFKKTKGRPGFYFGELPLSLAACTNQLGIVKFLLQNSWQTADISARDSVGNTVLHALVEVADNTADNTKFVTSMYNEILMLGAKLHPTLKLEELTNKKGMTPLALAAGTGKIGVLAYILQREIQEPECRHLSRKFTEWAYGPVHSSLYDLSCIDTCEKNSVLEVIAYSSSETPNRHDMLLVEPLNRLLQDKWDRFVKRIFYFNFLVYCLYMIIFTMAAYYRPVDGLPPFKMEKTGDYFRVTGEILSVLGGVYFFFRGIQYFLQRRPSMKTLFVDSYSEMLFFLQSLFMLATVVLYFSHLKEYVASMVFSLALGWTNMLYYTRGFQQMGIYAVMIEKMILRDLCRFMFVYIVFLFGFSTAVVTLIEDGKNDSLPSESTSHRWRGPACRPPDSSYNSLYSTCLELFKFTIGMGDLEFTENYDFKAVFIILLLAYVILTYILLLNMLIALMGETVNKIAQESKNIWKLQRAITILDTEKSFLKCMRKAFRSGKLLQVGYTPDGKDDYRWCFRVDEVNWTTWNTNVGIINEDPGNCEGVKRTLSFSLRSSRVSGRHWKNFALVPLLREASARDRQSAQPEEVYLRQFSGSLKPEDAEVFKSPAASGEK

Question: With `COc1cc(NC(=S)N2CCN(c3ccccn3)CC2)cc(OC)c1` as the molecule, how does the activation read?
Answer: inactive: 0.436%

Question: `O=C(C1=C(O)C(=O)N(c2nccs2)C1c1ccccc1)c1cc2ccccc2o1` (centres undefined) was tested. Which activation did it give?
Answer: inconclusive: 30.7%

Question: For `O=C(c1cc(COc2ccc(F)cc2Cl)on1)N1CCSCC1`, which activation is on record?
Answer: inconclusive: 73.1%

Question: With `Cc1nc2ccc(-c3nc4ccccc4o3)cc2[nH]1` as the molecule, how does the activation read?
Answer: inconclusive: 48%

Question: With `CCCCNc1c2c(nc3c(-c4ccccc4)c(C)nn13)CCC2` as the molecule, how does the activation read?
Answer: inactive: -16.6%

Question: With `CC(=O)c1c(C)n(-c2ccc(N(C)C)cc2)c2ccc(OCC(N)=O)cc12` as the molecule, how does the activation read?
Answer: inconclusive: 56.1%

Question: Which activation does the source give for `Cc1ccc2c(Cl)c(C)c(N3CCCCC3)nc2n1` here?
Answer: inactive: 13.4%

Question: For `O=C(Nc1ccc(C2CC2(Cl)Cl)cc1)c1cccc([N+](=O)[O-])c1` (centres undefined), which activation is on record?
Answer: inconclusive: 61.6%

Question: Which activation does the source give for `COC(=O)c1ccc(C23CC4(C2)[C@H](CN(C)[C@@H]4c2ccccc2)C3c2ccc(Cl)nc2)cc1` (some centres undefined) here?
Answer: inactive: -0.465%

Question: With `O=C(COC(=O)COc1ccc(Cl)cc1)NCc1cccs1` as the molecule, how does the activation read?
Answer: inconclusive: 34.1%

Question: How did the activation turn out when `COc1ccc(/C=C(/NC(=O)c2ccc(C)cc2)C(=O)NCc2ccncc2)cc1` was run?
Answer: inconclusive: 51.3%

Question: How did the activation turn out when `CCOC(=O)C1=C(COC(=O)C(C)(C)Oc2ccc(Cl)cc2)NC(=O)NC1C` (centres undefined) was run?
Answer: inconclusive: 31.7%

Question: How did the activation turn out when `O=C(Nc1cc(C(F)(F)F)ccc1N1CCOCC1)c1cccs1` was run?
Answer: inconclusive: 36.3%

Question: Which activation does the source give for `Cc1ccc(-n2nnnc2C(Cl)(Cl)c2nnnn2-c2ccc(C)cc2)cc1` here?
Answer: inactive: 24.2%

Question: How did the activation turn out when `NS(=O)(=O)c1ccc(NC(=O)CSc2nc3ccccc3n2-c2ccccc2)cc1` was run?
Answer: inconclusive: 49.1%

Question: For `CCOc1ccccc1N1CCN(C(=O)NCc2ccc(F)cc2)CC1`, which activation is on record?
Answer: inconclusive: 57.4%

Question: With `O=C(CCC1CCCN(C2C3CC4CC(C3)CC2C4)C1)NCc1ccc(F)c(F)c1` (centres undefined) as the molecule, how does the activation read?
Answer: inconclusive: 38.8%

Question: With `Cc1ccc2c(c1)N(Cc1ccc3c(c1)OCO3)C(=O)C(C)O2` (centres undefined) as the molecule, how does the activation read?
Answer: inconclusive: 38.6%

Question: Which activation does the source give for `COCCNc1c2c(nc3c(-c4ccccc4)c(C)nn13)CCC2` here?
Answer: inconclusive: 36.2%

Question: With `CC(C)C(=O)Nc1ccc(S(=O)(=O)N2CCC(c3nc4ccccc4[nH]3)CC2)cc1` as the molecule, how does the activation read?
Answer: inactive: 3.66%

Question: How did the activation turn out when `S=c1[nH]nc(-c2ccccn2)n1/N=C/c1ccc(Cl)c(Cl)c1` was run?
Answer: inactive: 0.819%

Question: How did the activation turn out when `COc1cc(C2NC(=S)NC3=C2CCc2ccccc23)cc(OC)c1OC` (centres undefined) was run?
Answer: inactive: -0.233%

Question: Which activation does the source give for `CCc1ccc(OCC(=O)NC(NC(=S)Nc2ccccc2C)C(Cl)(Cl)Cl)cc1` (centres undefined) here?
Answer: inconclusive: 30.7%

Question: How did the activation turn out when `Cc1cccc(N2CCN(C(=O)c3ccc(NS(=O)(=O)c4ccc5[nH]c(=O)[nH]c5c4)cc3)CC2)c1C` was run?
Answer: inactive: -0.863%

Source: PubChem BioAssay AID540275 (National Center for Advancing Translational Sciences (NCATS), 2011)
